Data source: PubChem BioAssay AID1259306 (Sanger Institute, 2017)
Test: 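Kinases needed for viability and knock-downs that synergise with BYL719, cetuximab or trametinib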 (primary screen). System: human SNU-C5 colorectal cancer cells. Knock-down reagent: siRNA pool against human genes. Treatment: DMSO vehicle alone, or one anchor drug: BYL719 at 1 µM, cetuximab at 5 µg/ml or trametinib at 10 nM, given 24 h into the assay. Measured: 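Replicate-averaged viability against non-targeting pool control, given as fraction and robust z-score; separate synergy scores for BYL719, cetuximab and trametinib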. Direction: robust z-score, knock-down alone and viability, knock-down alone: higher = more viable cells; synergy score with BYL719: higher = stronger synthetic lethality with BYL719; synergy score with cetuximab: higher = stronger synthetic lethality with cetuximab; synergy score with trametinib: higher = stronger synthetic lethality with trametinib. Active means: 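Essential if knock-down without drug gives a robust z-score under -3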. Calls: active = essential (knock-down alone); inactive = no change alone.
In all, the deposit lists 794 reagents; below is an unselected part. 11 of all reagents (1.4%) count as active. 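Calls reflect knock-down alone; synergy scores play no part, so knock-downs synergising with a drug can be called no change.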 Unmarked entries are inactive. Viability is capped at 1. Not given: the amount of reagent, the time to read-out.

no.	target gene	robust z-score, knock-down alone	viability, knock-down alone	synergy score with BYL719	synergy score with cetuximab	synergy score with trametinib
1	DSTYK (dual serine/threonine and tyrosine protein kinase)	0.109	0.879	0.0799	-0.121	-0.0891
2	GALK2 (galactokinase 2)	-1.17	0.702	0.0512	0.00695	-0.148
3	STK26 (serine/threonine kinase 26)	0.359	0.913	0.212	-0.0869	-0.0538
4	CDK11B (cyclin dependent kinase 11B)	-0.104	0.849	-0.151	0.0927	-0.145
5	TSSK1B (testis specific serine kinase 1B)	-0.842	0.748	-0.0856	-0.0741	-0.175
6	CERT1 (ceramide transporter 1)	0.143	0.883	0.0249	0.0793	-0.0195
7	TESK1 (testis associated actin remodelling kinase 1)	-1.94	0.597	0.0735	0.114	-0.253
8	PRAG1 (PEAK1 related, kinase-activating pseudokinase 1)	-0.762	0.759	0.061	-0.0731	0.0412
9	STK40 (serine/threonine kinase 40)	-0.119	0.847	0.0869	-0.0216	-0.0504
10	EFNA5 (ephrin A5)	0.989	1	0.0307	0	-0.217
11	CDK4 (cyclin dependent kinase 4)	0.989	1	0.0607	0.075	0.0175
12	EPHA7 (EPH receptor A7)	-3.03 (active)	0.446	-0.298	-0.23	-0.173
13	RTN4 (reticulon 4)	-0.57	0.785	-0.051	0.165	-0.00378
14	MELK (maternal embryonic leucine zipper kinase)	0.435	0.924	0.173	0.123	0.0925
15	MPP3 (MAGUK p55 scaffold protein 3)	-1.73	0.625	0.106	-0.277	0.0716
16	PASK (PAS domain containing serine/threonine kinase)	0.914	0.99	-0.00866	-0.0104	0.0324
17	MARK3 (microtubule affinity regulating kinase 3)	-0.238	0.831	0.0081	-0.089	0.0522
18	RPS6KA2 (ribosomal protein S6 kinase A2)	-1.89	0.603	0.155	-0.114	-0.0358
19	ZAP70 (zeta chain of T cell receptor associated protein kinase 70)	-0.457	0.801	0.0988	-0.161	-0.125
20	SRGAP3 (SLIT-ROBO Rho GTPase activating protein 3)	0.0738	0.874	-0.0742	-0.0944	-0.234
21	PIK3CB	-0.578	0.784	-0.0601	-0.0427	-0.193
22	CIT (citron rho-interacting serine/threonine kinase)	-0.244	0.83	0.0105	-0.0433	0.0259
23	GNE	0.255	0.899	0.0794	-0.0792	0.115
24	AURKB (aurora kinase B)	-0.546	0.789	-0.0292	-0.173	-0.00379
25	PRKG1 (protein kinase cGMP-dependent 1)	0.989	1	0.16	0.217	-0.0381
26	PAPSS2 (3'-phosphoadenosine 5'-phosphosulfate synthase 2)	0.989	1	0.263	0.236	0.0218
27	PRKCH (protein kinase C eta)	-0.763	0.759	0.199	-0.122	0.00344
28	AK4 (adenylate kinase 4)	0.482	0.93	0.0636	-0.0698	0.11
29	MAPK8 (mitogen-activated protein kinase 8)	0.989	1	0.0831	0	0.000579
30	EFNB3 (ephrin B3)	-2.04	0.583	-0.0516	0.0424	-0.213
31	UCKL1 (uridine-cytidine kinase 1 like 1)	0.989	1	0.081	0	-0.0338
32	NUP98 (nucleoporin 98 and 96 precursor)	-1.56	0.649	0.015	0.104	-0.181
33	RPS6KL1 (ribosomal protein S6 kinase like 1)	0.308	0.906	-0.0759	-0.00434	-0.0595
34	DMPK (DM1 protein kinase)	0.989	1	0.221	0.0176	-0.0435
35	MECOM (MDS1 and EVI1 complex locus)	-0.321	0.819	-0.091	-0.17	-0.127
36	CAMK2B (calcium/calmodulin dependent protein kinase II beta)	0.843	0.98	0.0429	0.172	-0.217
37	CDK11A (cyclin dependent kinase 11A)	-2.24	0.555	-0.129	0.0421	-0.0233
38	ROS1 (ROS proto-oncogene 1, receptor tyrosine kinase)	0.989	1	0.184	0	-0.209
39	FLT1 (fms related receptor tyrosine kinase 1)	0.989	1	0.0301	0	-0.119
40	RIOK3 (RIO kinase 3)	0.231	0.896	0.193	0.218	0.0305
41	MAP2K6 (mitogen-activated protein kinase kinase 6)	0.989	1	0	0	-0.0177
42	PDIK1L (PDLIM1 interacting kinase 1 like)	0.416	0.921	-0.0789	-0.0487	-0.00856
43	KCNH2 (potassium voltage-gated channel subfamily H member 2)	0.477	0.929	0.0548	-0.0193	-0.0164
44	ITSN1 (intersectin 1)	-0.273	0.826	-0.0284	-0.0917	-0.0465
45	CDK19 (cyclin dependent kinase 19)	0.989	1	0.217	0.0638	-0.0449
46	FGR (FGR proto-oncogene, Src family tyrosine kinase)	0.324	0.908	0.187	-0.0875	-0.0753
47	OBSCN	-0.875	0.743	-0.148	-0.0174	-0.125
48	PRPS1L1 (phosphoribosyl pyrophosphate synthetase 1 like 1)	0.0416	0.869	-0.0718	-0.0283	-0.0692
49	CAD	0.147	0.884	-0.0723	0.0517	-0.125
50	IRAK4 (interleukin 1 receptor associated kinase 4)	0.364	0.914	0.0868	-0.0861	-0.167

Reformatted: entries from further up
SRGAP3 (SLIT-ROBO Rho GTPase activating protein 3)
- robust z-score, knock-down alone: 0.0738
- viability, knock-down alone: 0.874
- synergy score with BYL719: -0.0742
- synergy score with cetuximab: -0.0944
- synergy score with trametinib: -0.234

PIK3CB
- robust z-score, knock-down alone: -0.578
- viability, knock-down alone: 0.784
- synergy score with BYL719: -0.0601
- synergy score with cetuximab: -0.0427
- synergy score with trametinib: -0.193

CIT (citron rho-interacting serine/threonine kinase)
- robust z-score, knock-down alone: -0.244
- viability, knock-down alone: 0.83
- synergy score with BYL719: 0.0105
- synergy score with cetuximab: -0.0433
- synergy score with trametinib: 0.0259

GNE
- robust z-score, knock-down alone: 0.255
- viability, knock-down alone: 0.899
- synergy score with BYL719: 0.0794
- synergy score with cetuximab: -0.0792
- synergy score with trametinib: 0.115

AURKB (aurora kinase B)
- robust z-score, knock-down alone: -0.546
- viability, knock-down alone: 0.789
- synergy score with BYL719: -0.0292
- synergy score with cetuximab: -0.173
- synergy score with trametinib: -0.00379

PRKG1 (protein kinase cGMP-dependent 1)
- robust z-score, knock-down alone: 0.989
- viability, knock-down alone: 1
- synergy score with BYL719: 0.16
- synergy score with cetuximab: 0.217
- synergy score with trametinib: -0.0381
